Measurements reported in PubChem BioAssay AID1259405 (NCATS, 2018)

Test: 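Silenced genes that increase secreted GFP made by CHO cells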 (primary screen)
Cells: Chinese hamster CHO-K1 ovary cells with stable secreted eGFP expression
Reagents: single siRNA against mouse genes, 0.8 pmol siRNA per well (2 µl of 400 nM stock)
Time to read-out: 3 days
Read-out: 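Percent of the per-plate non-targeting control median for intracellular GFP per well by laser scanning cytometry and for cell viability by ATP luminescence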
Scale: GFP, % of control: higher = more GFP per well, higher productivity; viability (ATP), % of control: higher = more viable cells (more ATP)
Active means: 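Called active when intracellular GFP, relative to negative control, is at or above 120%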
The deposit covers about 50,000 reagents; below is a random part of them. Over the whole deposit, about 4,000 (8%) got an active call. 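Mouse siRNA library applied to hamster cells; one well for each siRNA.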 Reagents against one gene are numbered here.

| gene | reagent no. | GFP, % of control | viability (ATP), % of control | outcome |
| --- | --- | --- | --- | --- |
| Cabcoco1 (GeneID 73287) | 1 | 43.5 | 54.2 | inactive |
| Cabcoco1 (GeneID 73287) | 2 | 83.7 | 78.1 | inactive |
| Cabcoco1 (GeneID 73287) | 3 | 79 | 69.8 | inactive |
| Rnase1 (GeneID 19752) | 1 | 67.4 | 124 | inactive |
| Rnase1 (GeneID 19752) | 2 | 19.6 | 34.4 | inactive |
| Rnase1 (GeneID 19752) | 3 | 97.3 | 58.3 | inactive |
| Tut4 (GeneID 230594) | 1 | 51.8 | 56.9 | inactive |
| Tut4 (GeneID 230594) | 2 | 63.4 | 47.9 | inactive |
| Tut4 (GeneID 230594) | 3 | 79.7 | 109 | inactive |
| Zfp451 (GeneID 98403) | 1 | 154 | 99.3 | active |
| Zfp451 (GeneID 98403) | 2 | 75.6 | 55 | inactive |
| Zfp451 (GeneID 98403) | 3 | 79.2 | 75.7 | inactive |
| Cd93 (GeneID 17064) | 1 | 102 | 81.8 | inactive |
| Cd93 (GeneID 17064) | 2 | 97.7 | 54.7 | inactive |
| Cd93 (GeneID 17064) | 3 | 112 | 68.1 | inactive |
| Mef2c (GeneID 17260) | 1 | 56.2 | 65.8 | inactive |
| Mef2c (GeneID 17260) | 2 | 35.2 | 41.3 | inactive |
| Mef2c (GeneID 17260) | 3 | 79.6 | 86.6 | inactive |
| Cbfa2t3 (GeneID 12398) | 1 | 69.5 | 75.9 | inactive |
| Cbfa2t3 (GeneID 12398) | 2 | 68.4 | 70 | inactive |
| Prb1b (GeneID 381832) | 1 | 79.1 | 99.1 | inactive |
| Prb1b (GeneID 381832) | 2 | 77.8 | 64.2 | inactive |
| Prb1b (GeneID 381832) | 3 | 64.4 | 81.8 | inactive |
| Rgl1 (GeneID 19731) | 1 | 103 | 93.4 | inactive |
| Rgl1 (GeneID 19731) | 2 | 145 | 80.8 | active |
| Rgl1 (GeneID 19731) | 3 | 59.2 | 57.4 | inactive |
| Rmdn1 (GeneID 66302) | 1 | 69.2 | 62.4 | inactive |
| Rmdn1 (GeneID 66302) | 2 | 7.91 | 15.6 | inactive |
| Rmdn1 (GeneID 66302) | 3 | 68.8 | 94.3 | inactive |
| B930095G15Rik (GeneID 320268) | 1 | 88.2 | 75.8 | inactive |
| B930095G15Rik (GeneID 320268) | 2 | 51.6 | 61.8 | inactive |
| B930095G15Rik (GeneID 320268) | 3 | 128 | 79.2 | active |
| Msantd4 (GeneID 78100) | 1 | 46.3 | 44.1 | inactive |
| Msantd4 (GeneID 78100) | 2 | 74.3 | 79.3 | inactive |
| Msantd4 (GeneID 78100) | 3 | 100 | 111 | inactive |
| Pank2 (GeneID 74450) | 1 | 90.6 | 85.1 | inactive |
| Pank2 (GeneID 74450) | 2 | 67.3 | 57.3 | inactive |
| Pank2 (GeneID 74450) | 3 | 68.8 | 74 | inactive |
| Tmed4 (GeneID 103694) | 1 | 133 | 95.7 | active |
| Tmed4 (GeneID 103694) | 2 | 217 | 152 | active |
| Tmed4 (GeneID 103694) | 3 | 72.3 | 94.7 | inactive |
| Gja4 (GeneID 14612) | 1 | 98.4 | 77.2 | inactive |
| Gja4 (GeneID 14612) | 2 | 123 | 87 | active |
| Gja4 (GeneID 14612) | 3 | 98.7 | 108 | inactive |
| Ces3b (GeneID 13909) | 1 | 92 | 75.8 | inactive |
| Ces3b (GeneID 13909) | 2 | 62.9 | 82.8 | inactive |
| Ces3b (GeneID 13909) | 3 | 50.8 | 61.3 | inactive |
| Taar2 (GeneID 209512) | 1 | 28.4 | 37.2 | inactive |
| Taar2 (GeneID 209512) | 2 | 73.2 | 84 | inactive |
| Taar2 (GeneID 209512) | 3 | 65.7 | 66.3 | inactive |
| BC004004 (GeneID 80748) | 1 | 86.5 | 36.3 | inactive |
| BC004004 (GeneID 80748) | 2 | 86.1 | 83.4 | inactive |
| BC004004 (GeneID 80748) | 3 | 47.4 | 41.6 | inactive |
| Ptcd2 (GeneID 68927) | 1 | 75 | 84.7 | inactive |
| Ptcd2 (GeneID 68927) | 2 | 94.9 | 73.6 | inactive |
| Ptcd2 (GeneID 68927) | 3 | 98.8 | 72 | inactive |
| Ppa2 (GeneID 74776) | 1 | 76.5 | 55.6 | inactive |
| Ppa2 (GeneID 74776) | 2 | 57.6 | 70.7 | inactive |
| Ppa2 (GeneID 74776) | 3 | 97.8 | 97.5 | inactive |
| Ikzf4 (GeneID 22781) | 1 | 106 | 88.4 | inactive |
| Ikzf4 (GeneID 22781) | 2 | 63.2 | 69.7 | inactive |
| Prr15l (GeneID 217138) | 1 | 94 | 84 | inactive |
| Prr15l (GeneID 217138) | 2 | 103 | 86.8 | inactive |
| Prr15l (GeneID 217138) | 3 | 123 | 156 | active |
| Rnf167 (GeneID 70510) | 1 | 89.5 | 70.6 | inactive |
| Rnf167 (GeneID 70510) | 2 | 33.1 | 51.6 | inactive |
| Rnf167 (GeneID 70510) | 3 | 74.7 | 62.2 | inactive |
| Evx1 (GeneID 14028) | 1 | 50.2 | 74.4 | inactive |
| Evx1 (GeneID 14028) | 2 | 80.3 | 67.1 | inactive |
| Evx1 (GeneID 14028) | 3 | 127 | 117 | active |
| Raet1b (GeneID 19369) | 1 | 90.1 | 84.4 | inactive |
| Raet1b (GeneID 19369) | 2 | 90.7 | 133 | inactive |
| Raet1b (GeneID 19369) | 3 | 56 | 78.3 | inactive |
| Fanca (GeneID 14087) | 1 | 32.9 | 101 | inactive |
| Fanca (GeneID 14087) | 2 | 125 | 84 | active |
| Fgd5 (GeneID 232237) | 1 | 76.4 | 71.8 | inactive |
| Fgd5 (GeneID 232237) | 2 | 89.4 | 92.9 | inactive |
| Fgd5 (GeneID 232237) | 3 | 86.5 | 66.1 | inactive |
| Defa-rs10 (GeneID 13219) | 1 | 59.3 | 83.4 | inactive |
| Defa-rs10 (GeneID 13219) | 2 | 180 | 114 | active |
| Defa-rs10 (GeneID 13219) | 3 | 97 | 57.7 | inactive |
| Grcc10 (GeneID 14790) | 1 | 65.2 | 62.5 | inactive |
| Grcc10 (GeneID 14790) | 2 | 70.7 | 55.1 | inactive |
| Grcc10 (GeneID 14790) | 3 | 68.2 | 77.3 | inactive |
| Rbmxl1 (GeneID 19656) | 1 | 57.1 | 43.9 | inactive |
| Rbmxl1 (GeneID 19656) | 2 | 93.7 | 76.7 | inactive |
| Rbmxl1 (GeneID 19656) | 3 | 146 | 102 | active |
| Ctdsp1 (GeneID 227292) | 1 | 96.2 | 82.6 | inactive |
| Ctdsp1 (GeneID 227292) | 2 | 77.2 | 55.8 | inactive |
| Ctdsp1 (GeneID 227292) | 3 | 113 | 60.9 | inactive |
| Tut7 (GeneID 214290) | 1 | 83.1 | 72.3 | inactive |
| Tut7 (GeneID 214290) | 2 | 93.4 | 82.1 | inactive |
| Tut7 (GeneID 214290) | 3 | 78.9 | 101 | inactive |
| Fundc2 (GeneID 67391) | 1 | 65 | 74.3 | inactive |
| Fundc2 (GeneID 67391) | 2 | 36.5 | 54.1 | inactive |
| Fundc2 (GeneID 67391) | 3 | 76.1 | 73.1 | inactive |
| Sart3 (GeneID 53890) | 1 | 69.4 | 80 | inactive |
| Sart3 (GeneID 53890) | 2 | 85.7 | 84.9 | inactive |
| Sart3 (GeneID 53890) | 3 | 63.2 | 64.5 | inactive |
| Chst2 (GeneID 54371) | 1 | 105 | 74.6 | inactive |
| Chst2 (GeneID 54371) | 2 | 97.3 | 74.6 | inactive |
| Chst2 (GeneID 54371) | 3 | 121 | 111 | active |
| Or4c124 (GeneID 258320) | 1 | 55.1 | 61.2 | inactive |
| Or4c124 (GeneID 258320) | 2 | 98.1 | 64.6 | inactive |
| Or4c124 (GeneID 258320) | 3 | 32.1 | 87.9 | inactive |
| Galnt7 (GeneID 108150) | 1 | 139 | 97.4 | active |
| Galnt7 (GeneID 108150) | 2 | 107 | 71.4 | inactive |
| Galnt7 (GeneID 108150) | 3 | 112 | 90.9 | inactive |
